Laboratory results: patent US8580829B2 (Boehringer Ingelheim International GmbH, priority 2010, dated 2013)
The match of structure and compound is tentative.

Chains of the proteins cited; added tags and fusions are not shown.
UniProt P20292, whole entry: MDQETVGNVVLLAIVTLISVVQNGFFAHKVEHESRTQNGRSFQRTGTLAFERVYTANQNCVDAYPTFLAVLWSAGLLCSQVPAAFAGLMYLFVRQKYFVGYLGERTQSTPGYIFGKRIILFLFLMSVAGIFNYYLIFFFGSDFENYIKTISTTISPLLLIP

Experiments:
[1] = tested on: synthesis of LTB4 in human whole blood; test: human whole blood LTB4 production inhibition assay; type: cell-based; settings: read-out: hWB LTB4 IC50; heparinized human whole blood, calcimycin 20 μM
Description: Compounds are additionally tested in a human whole blood assay to determine their ability to inhibit the synthesis of LTB4 in a cellular system. Compounds are combined with heparinized human whole blood and incubated for 15 minutes at 37° C. Calcimycin (20 μM final, prepared in phosphate-buffered saline, pH 7.4) is then added and the mixture is incubated for another 30 minutes at 37° C. The samples are centrifuged for 5 min at low speed (1500×g) and the plasma layer is removed. Plasma LTB4 concentrations are then measured using an antibody-based homogenous time-resolved fluorescence method (CisBio, Bedford, Mass.).

[2] = biological target: recombinant human FLAP protein (Homo sapiens, UniProt P20292); test: FLAP binding assay (Scintillation Proximity Assay, displacement of [125I]L-691,831); settings: read-out: FLAP SPA IC50; recombinant human FLAP membranes, [125I]L-691,831 probe

Nc1ncc(-c2ccc(C3(c4noc(-c5csc(N6CCNCC6)n5)n4)CCC3)cc2)cn1 [Example 266, 5-(4-{1-[5-(2-Piperazin-1-yl-thiazol-4-yl)-[1,2,4]oxadiazol-3-yl]-cyclobutyl}-phenyl)-pyrimidin-2-ylamine]
IC50 [1]: 60 nM | IC50 [2]: 4 nM
